## Library screening results

Protein sequences, listed by entry. Tags and fused reporters are not part of them.
UniProt E9BF75, entry or part of it: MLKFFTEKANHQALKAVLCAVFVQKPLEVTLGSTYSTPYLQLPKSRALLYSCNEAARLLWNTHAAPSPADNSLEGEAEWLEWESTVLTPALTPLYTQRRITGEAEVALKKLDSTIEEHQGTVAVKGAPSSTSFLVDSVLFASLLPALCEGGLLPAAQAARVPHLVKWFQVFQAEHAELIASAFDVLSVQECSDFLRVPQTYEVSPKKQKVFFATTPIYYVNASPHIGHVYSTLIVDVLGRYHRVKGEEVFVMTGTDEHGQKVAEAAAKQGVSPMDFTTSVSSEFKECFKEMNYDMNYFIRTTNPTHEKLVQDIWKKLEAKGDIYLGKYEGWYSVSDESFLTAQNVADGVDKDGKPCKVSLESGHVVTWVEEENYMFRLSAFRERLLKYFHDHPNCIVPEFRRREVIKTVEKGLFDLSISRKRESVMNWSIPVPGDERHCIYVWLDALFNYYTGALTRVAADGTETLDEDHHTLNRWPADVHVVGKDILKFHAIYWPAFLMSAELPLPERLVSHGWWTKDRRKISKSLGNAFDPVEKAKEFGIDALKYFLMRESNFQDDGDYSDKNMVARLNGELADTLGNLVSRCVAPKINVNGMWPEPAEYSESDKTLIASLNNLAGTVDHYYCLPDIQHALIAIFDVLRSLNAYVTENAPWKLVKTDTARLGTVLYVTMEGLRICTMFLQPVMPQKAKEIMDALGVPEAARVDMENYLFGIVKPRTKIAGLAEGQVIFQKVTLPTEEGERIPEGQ

From ChEMBL document CHEMBL3988442, “University of Dundee, Small-Polar-MMV Screening Library” (2021).

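Primary screen of methionyl-tRNA synthetase; the read-out is not stated. Target: Methionyl-tRNA synthetase (putative), Leishmania donovani (UniProt E9BF75). The test concentration is not given. The values are filed as inhibition. Size under these conditions: about 68,000 compounds, about 24 of them at 50% or above in at least one test.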

Results are percentages, as filed. The record does not define 0% and 100%; most values in the screen are far below 50% and negative numbers occur (in some assays of this library far below -100). Compounds were drawn at random from those tested, without regard to their results.

| structure | Inhibition |
|---|---|
| `CCN1C(=O)CC[C@]12CC[C@@H](NC(=O)c1ccncc1F)CC2` | -10.08 |
| `O=C(c1ccccn1)N1CCC(c2nc(O)cc(-c3ccncc3)n2)C1` (centres unmarked) | 2.604 |
| `COc1ccc(-c2cn(CCSc3ncn[nH]3)nn2)cn1` | 6.933 |
| `O=C(Nc1cnc(Oc2ccccc2F)nc1)C1CC1` | 9.353 |
| `O=C(c1cnc(NCc2cccnc2)c(Cl)c1)N1CCCCC1` | 21.77 |
| `CC(C)Cc1noc(CN2CCCC(Cn3cncn3)C2)n1` (centres unmarked) | 16.19 |
| `O=C(NCC1CCOCC1)[C@H]1C[C@@H]2CCN(Cc3ccncc3)C[C@@H]2O1` | 12.97 |
| `CCC(Nc1ccc(CCN2CCOCC2)cc1)C(N)=O` (centres unmarked) | 14.86 |
| `O=C(NC1CCC1)C1=NOC2(CCN(Cc3ccco3)C2)C1` (centres unmarked) | 1.307 |
| `O=C(c1cccnc1)N1CCC(Oc2cccc(C(F)(F)F)c2)CC1` | 20.36 |
| `COCCc1ncc(CN2CCC3(CCCN(CC4CC4)C3)C2)cn1` (centres unmarked) | 11.11 |
| `O=C(O)COc1ccc(CN2CCCC(CCc3ccccc3)C2)cc1` (centres unmarked) | 6.527 |
| `CCCc1nc(C)c(C(=O)NCCN2CCOCC2)s1` | 7.104 |
| `COC[C@H]1CC[C@H]2[C@H](CCN2S(=O)(=O)c2ccccc2)O1` | 3.75 |
| `CCc1nccn1CC1CCCN1S(=O)(=O)N1CCCOCC1` (centres unmarked) | 4.878 |
| `Cc1cc2cc(C(=O)N3CCN(CCO)[C@@H]4CS(=O)(=O)C[C@@H]43)ccc2o1` | 6.587 |
| `O=C(NCCCN1CCCC1=O)c1ccc(-n2ccc3ccccc32)s1` | 5.634 |
| `CC(Cc1cnccn1)NC(=O)COc1ccc(F)cc1F` (centres unmarked) | 7.554 |
| `O=C(NCCc1nccs1)[C@H](c1ccccc1)n1cnnn1` | 11.26 |
| `COCCN1CC[C@@H]2CN(Cc3cccnc3OC)C[C@@H]2C1` | 3.846 |
| `Cc1ccc(NC(=O)Nc2cnc(N3CCN(C)CC3)nc2)cc1` | 8.451 |
| `CC(C)c1cc(C(=O)N[C@@H]2CC[C@@H](Oc3ccccc3)[C@@H]2O)on1` | 10.47 |
| `CC(C1CCN(Cc2ccc(OC(F)F)cc2)CC1)N1CCOCC1` (centres unmarked) | 8.675 |
| `Cc1cc(F)ccc1OC1(C(=O)O)CCN(Cc2ccncc2)CC1` | 17.56 |
| `CCCSCC(=O)N1CCN(c2ccc(C)cc2)CC1C` (centres unmarked) | 9.589 |
| `Cc1nc(C)c(C(=O)N(C)Cc2cnn(C)c2)s1` | 5.866 |
| `NCC(=O)N1CCCC1c1n[nH]cc1-c1ccccc1F` (centres unmarked) | 9.494 |
| `Cn1ccnc1-c1cccc(NC(=O)NCC(=O)NC(C)(C)C)c1` | 7.116 |
| `COc1nn(C)cc1C(=O)N1CCC(c2nnc(C3CC3)o2)CC1` | 18.63 |
| `CN(Cc1ccc(C(=O)Nc2sccc2C#N)cc1)Cc1ccno1` | 15.78 |
| `NCc1cccc(-c2cccnc2C(=O)NCCCN2CCOCC2)c1` | 8.228 |
| `COC(=O)Cn1c(=O)nc2n1C(=O)N(c1cccc(Cl)c1)C2` | 11.31 |
| `CCCN1CCN(C(=O)CCn2nc(C(F)(F)F)c(Br)c2C)CC1` | 16.67 |
| `CCc1[nH]ncc1C(=O)N1CCCC(n2nc(C)cc2C)C1` (centres unmarked) | 12.65 |
| `CN(Cc1cccc(Cl)c1)S(=O)(=O)N1CCOCC1` | 13.38 |
| `COCc1ncn(Cc2nc(-c3ccco3)oc2C)n1` | 11.18 |
| `Cn1nc(CNC(=O)CC#N)c2c1CN(CC1CC1)CC2` | 10.8 |
| `CSCC[C@H](NC(C)=O)c1nc(CC(C)C)n[nH]1` | 4.693 |
| `Cc1cc2n(n1)CC(CNC1CCN(C3CC3)CC1)CN2` (centres unmarked) | 9.964 |
| `CCN(CC)C(=O)CN(C)C(=O)c1ccc(-c2ccsc2)nc1C` | 0.2833 |
| `COc1ccccc1N1CC(NC(=O)Cn2cc(C(C)C)nn2)CC1=O` (centres unmarked) | 11.11 |
| `COc1ccc(C(=O)C2CCCN(c3cc(C#N)ccn3)C2)cc1OC` (centres unmarked) | 22.5 |
| `O=C(Cc1ccc(Cl)s1)Nc1ccc2c(c1)C(=O)NC2=O` | 8.192 |
| `O=C(C1CCOCC1)N1CC[C@@](O)(c2ccccc2)[C@H]2CCCC[C@@H]21` | 0.9677 |
| `COCC(=O)N1CCC(c2nc3ccc(N4CCOCC4)cn3n2)CC1` | 3.759 |
| `CCN1CCN(C(=O)COc2ccc(CN(C)S(C)(=O)=O)cc2)CC1` | 12.46 |
| `CCc1nc(C)c([C@H]2CN(C)C[C@@H]2C(=O)NCc2ccccc2OC)[nH]1` | 10.11 |
| `Cc1ccc(-c2nc(CSCCC(=O)NC(N)=O)co2)c(C)c1` | 8.411 |
| `CCN(CC)CC[C@H]1CN(C(=O)NC2CCCCC2)CC[C@H]1CC(=O)O` | 3.846 |
| `Fc1ccccc1CC1CCN(Cc2nccs2)CC1` | 9.926 |
| `O[C@H]1COCCN(Cc2cccc3c2OCO3)C1` | 11.28 |
| `CS(=O)(=O)N1CCC(NCC2(N3CCOCC3)CCCCC2)CC1` | 12.39 |
| `COc1cccc(NC(=O)Cn2c(=O)nc(N)c3cc(C)sc32)c1` | 12.14 |
| `Cc1cc(C[C@@H]2CCC[C@H]2NCc2ccc(C(F)(F)F)cc2)on1` | 13.41 |
| `CCNc1cc2c(nn1)CCN(C(=O)c1ccc(CNC(C)=O)o1)C2` | 11.89 |
| `CCOc1cccnc1C(=O)N1CC=C(c2ccc(O)cc2)CC1` | 10.43 |
| `CC1(C)CCN(Cc2ccccc2-c2nc(C(C)(C)C)cc(=O)[nH]2)C1` | 17.71 |
| `c1cnnc(N2CCCC2CNCc2cc[nH]n2)c1` (centres unmarked) | 6.122 |
| `O=c1ncn(-c2cccc(F)c2)c2ncccc12` | 3.684 |
| `Cc1ccc(CN2CC[C@H]3OCC[C@@]3(C(=O)N3CCCO3)C2)o1` | 6.849 |
| `O=C(c1ccoc1)N(Cc1ccccn1)C1CC1` | 12.66 |
| `Cc1noc([C@@H](C)NCc2cccc(Cl)c2)c1C(=O)O` | 2.256 |
| `CC(=O)N1CCC(NC2(Cc3cc(CN(C)C)on3)COC2)CC1` | 6.84 |
| `CC(C)c1nc(CN(C)Cc2ccc(O)c(C(=O)O)c2)cs1` | 18.04 |
| `CS(=O)(=O)CCCNC1(c2cccc(Cl)c2)CCCC1` | 13.64 |
| `Cc1cc(C)c(CNC(=O)N2CCCC2c2cccc(F)c2)c(=O)[nH]1` (centres unmarked) | 8.547 |
| `COc1cccc(CNCCNS(=O)(=O)Cc2ccccc2)c1` | 16.09 |
| `Cc1c(C2N3C[C@]4(C)CN2C[C@](C)(C3)C4=O)[nH]c(=O)[nH]c1=O` (some centres unmarked) | 7.859 |
| `CCC(C)(C)NC(=O)c1scnc1Cl` | -1.099 |
| `CCn1ccnc1CN1CCN(C(C)C(=O)N2CCC(C)CC2)CC1` (centres unmarked) | 11.11 |
| `Cc1ccccc1CCCN(C)S(C)(=O)=O` | 12.21 |
| `Nc1nc2c(c(N3CCSCC3)n1)CCN(Cc1ccccn1)CC2` | 6.634 |
| `CCCS(=O)(=O)N1C[C@H](N(C)Cc2ccco2)[C@@H]2OCCC[C@@H]21` | 15.38 |
| `CCCN(C)S(=O)(=O)NC(=O)c1ccc(CC)o1` | 6.522 |
| `CN(Cc1ccco1)Cc1cncc2c1CCN(c1ncccn1)C2` | 11.3 |
| `CC(NC(=O)NCCCO)c1ccc(-c2ccncc2)cc1` (centres unmarked) | 7.692 |
| `CS(=O)(=O)N[C@@H]1CN(Cc2ccco2)C[C@@H]2CCCO[C@@H]21` | 10.37 |
| `O[C@@H]1C[C@H]2CN(Cc3ccccc3)[C@H](Cc3ccccc3)CN2C1` | 8.491 |
| `CSCCC(C)NC(=O)CCN1C(=O)CCc2cc(F)ccc21` (centres unmarked) | 13.66 |
| `c1ncn(CC2CN(Cc3csc(C4CCCC4)n3)CCO2)n1` (centres unmarked) | 11.02 |
| `CNc1ncccc1C(=O)N1CCC2(CCN(C)C2)CC1` | 4.511 |
| `COc1ccccc1OCC(=O)NS(=O)(=O)c1ccc(C)s1` | 13.59 |
| `CS(=O)(=O)NCCNC(=O)C1(c2ccc(F)cc2)CC1` | 13.94 |
| `Cc1cnn(CC(=O)N2CCC3(CCC(=O)N(CC(C)O)C3)CC2)c1` (centres unmarked) | 9.067 |
| `COc1cccc(C2SCC(=O)Nc3n[nH]cc32)c1OC(C)C` (centres unmarked) | 16.43 |
| `CNC(=O)c1cn2cc(-c3ccc(F)cc3)n(CC=C(C)C)c(=O)c2n1` | 6.969 |
| `CCn1cc(Cl)c(C(=O)NCc2cnn(C)c2)n1` | 1.737 |
| `Cc1cc(C)c2cc(CNCc3ccco3)c3nn(C)c(=O)n3c2c1` | 15.25 |
| `COc1cccc(Cn2cc(N3C(=O)[C@H]4CCCC[C@H]4C3=O)cn2)c1` | 13.65 |
| `COc1ccc(S(=O)(=O)N2CCC[C@@H]3CN(C(=O)C4CC4)C[C@@H]32)cc1F` | 9.346 |
| `CCNC(=O)c1sccc1N(C)S(=O)(=O)c1ccc(Cl)cc1` | -9.065 |

8 of the entries, repeated:

structure	Inhibition
CNC(=O)c1cn2cc(-c3ccc(F)cc3)n(CC=C(C)C)c(=O)c2n1	6.969
Cc1cnn(CC(=O)N2CCC3(CCC(=O)N(CC(C)O)C3)CC2)c1 (centres unmarked)	9.067
CC(=O)N1CCC(NC2(Cc3cc(CN(C)C)on3)COC2)CC1	6.84
COc1cccc(CNCCNS(=O)(=O)Cc2ccccc2)c1	16.09
CS(=O)(=O)N1CCC(NCC2(N3CCOCC3)CCCCC2)CC1	12.39
O=c1ncn(-c2cccc(F)c2)c2ncccc12	3.684
CSCCC(C)NC(=O)CCN1C(=O)CCc2cc(F)ccc21 (centres unmarked)	13.66
COc1cccc(C2SCC(=O)Nc3n[nH]cc32)c1OC(C)C (centres unmarked)	16.43